Reference: article PMC9547787

biological target: H3.1K27M (FLAG-BirA* fusion, BioID bait) (human); assay: proximity labelling; BioID: FLAG-BirA*-H3 (WT or mutant) induced in Flp-In T-REx HEK293 with 50 uM biotin for 24 h; streptavidin sepharose pull-down, LC-MS/MS; high confidence BFDR <= 0.01 against FlagBirA* controls; mutants compared with their WT by peptide counts

binding	Binder
binds	ATF1 (protein, UniProt P18846 1-271) MEDSHKSTTSETAPQPGSAVQGAHISHIAQQVSSLSESEESQDSSDSIGSSQKAHGILARRPSYRKILKDLSSEDTRGRKGDGENSGVSAAVTSMSVPTPIYQTSSGQYIAIAPNGALQLASPGTDGVQGLQTLTMTNSGSTQQGTTILQYAQTSDGQQILVPSNQVVVQTASGDMQTYQIRTTPSATSLPQTVVMTSPVTLTSQTTKTDDPQLKREIRLMKNREAARECRRKKKEYVKCLENRVAVLENQNKTLIEELKTLKDLYSNKSV
no binding	mitochondrial transcription factor 1 (TFAM) (protein, UniProt Q00059 43-246) SSVLASCPKKPVSSYLRFSKEQLPIFKAQNPDAKTTELIRRIAQRWRELPDSKKKIYQDAYRAEWQVYKEEISRFKEQLTPSQIMSLEKEIMDKHLKRKAMTKKKELTLLGKPKRPRSAYNVYVAERFQEAKGDSPQEKLKTVKENWKNLSDSEKELYIQHAKEDETRYHNEMKSWEEQMIEVGRKDLLRRTIKKQRKYGAEEC
binds	ADNP2 (protein, UniProt Q6IQ32 1-1131) MFQIPVENLDNIRKVRKKVKGILVDIGLDSCKELLKDLKGFDPGEKYFHNTSWGDVSLWEPSGKKVRYRTKPYCCGLCKYSTKVLTSFKNHLHRYHEDEIDQELVIPCPNCVFASQPKVVGRHFRMFHAPVRKVQNYTVNILGETKSSRSDVISFTCLKCNFSNTLYYSMKKHVLVAHFHYLINSYFGLRTEEMGEQPKTNDTVSIEKIPPPDKYYCKKCNANASSQDALMYHILTSDIHRDLENKLRSVISEHIKRTGLLKQTHIAPKPAAHLAAPANGSAPSAPAQPPCFHLALPQNSPSPAAGQPVTVAQGAPGSLTHSPPAAGQSHMTLVSSPLPVGQNSLTLQPPAPQPVFLSHGVPLHQSVNPPVLPLSQPVGPVNKSVGTSVLPINQTVRPGVLPLTQPVGPINRPVGPGVLPVSPSVTPGVLQAVSPGVLSVSRAVPSGVLPAGQMTPAGQMTPAGVIPGQTATSGVLPTGQMVQSGVLPVGQTAPSRVLPPGQTAPLRVISAGQVVPSGLLSPNQTVSSSAVVPVNQGVNSGVLQLSQPVVSGVLPVGQPVRPGVLQLNQTVGTNILPVNQPVRPGASQNTTFLTSGSILRQLIPTGKQVNGIPTYTLAPVSVTLPVPPGGLATVAPPQMPIQLLPSGAAAPMAGSMPGMPSPPVLVNAAQSVFVQASSSAADTNQVLKQAKQWKTCPVCNELFPSNVYQVHMEVAHKHSESKSGEKLEPEKLAACAPFLKWMREKTVRCLSCKCLVSEEELIHHLLMHGLGCLFCPCTFHDIKGLSEHSRNRHLGKKKLPMDYSNRGFQLDVDANGNLLFPHLDFITILPKEKLGEREVYLAILAGIHSKSLVPVYVKVRPQAEGTPGSTGKRVSTCPFCFGPFVTTEAYELHLKERHHIMPTVHTVLKSPAFKCIHCCGVYTGNMTLAAIAVHLVRCRSAPKDSSSDLQAQPGFIHNSELLLVSGEVMHDSSFSVKRKLPDGHLGAEDQRHGEEQPPILNADAAPGPEKVTSVVPFKRQRNESRTEGPIVKDEALQILALDPKKYEGRSYEEKKQFLKDYFHKKPYPSKKEIELLSSLFWVWKIDVASFFGKRRYICMKAIKNHKPSVLLGFDMSELKNVKHRLNFEYEP
binds	SETDB2 (protein, UniProt Q96T68 1-719) MGEKNGDAKTFWMELEDDGKVDFIFEQVQNVLQSLKQKIKDGSATNKEYIQAMILVNEATIINSSTSIKGASQKEVNAQSSDPMPVTQKEQENKSNAFPSTSCENSFPEDCTFLTTENKEILSLEDKVVDFREKDSSSNLSYQSHDCSGACLMKMPLNLKGENPLQLPIKCHFQRRHAKTNSHSSALHVSYKTPCGRSLRNVEEVFRYLLETECNFLFTDNFSFNTYVQLARNYPKQKEVVSDVDISNGVESVPISFCNEIDSRKLPQFKYRKTVWPRAYNLTNFSSMFTDSCDCSEGCIDITKCACLQLTARNAKTSPLSSDKITTGYKYKRLQRQIPTGIYECSLLCKCNRQLCQNRVVQHGPQVRLQVFKTEQKGWGVRCLDDIDRGTFVCIYSGRLLSRANTEKSYGIDENGRDENTMKNIFSKKRKLEVACSDCEVEVLPLGLETHPRTAKTEKCPPKFSNNPKELTVETKYDNISRIQYHSVIRDPESKTAIFQHNGKKMEFVSSESVTPEDNDGFKPPREHLNSKTKGAQKDSSSNHVDEFEDNLLIESDVIDITKYREETPPRSRCNQATTLDNQNIKKAIEVQIQKPQEGRSTACQRQQVFCDEELLSETKNTSSDSLTKFNKGNVFLLDATKEGNVGRFLNHSCCPNLLVQNVFVETHNRNFPLVAFFTNRYVKARTELTWDYGYEAGTVPEKEIFCQCGVNKCRKKIL

These are yes or no findings as the source states them, for the method shown. In cells and extracts the contact can be indirect. These calls come from enrichment with a bait or labelling near it, and not all partners need be listed. A no says only that the protein was not detected with the bait.
